Results are given in words; binding and its absence hold for the method and conditions named. Some binding calls cover weakened binding; strength is not graded here. Where a sequence is shown, tags or fusion partners need not be part of it.
B1: Arabidopsis NUF2 (Y2H fusion) (protein, UniProt Q8RXJ0 1-440)
chain: MSAYEYPRLSRSDIITALKDAQIASVTETDLKTPTSDFVSELYTRILIYLDALDEEEKGQVDFEALEQLENPDHHATSMQAMKLYCKVKDMLEMLDCPLPISFKDLLRPESSRTEFFISALLNYGLYKDSKMDLIRPKAEELGLLDEQRKQCEAKVAQLNAEIGEFDEAVERDLPFVQELEANIEQLNKKILELNNQQMSLRATFQKMREKSTQMDNEISKAEFDLVETVQENANLRSQIVQSPDKLQGALEEKKLVLGETKKAEQSAMVTFQEKAAILEVFEKALKKILKSSSQLQLINEQVTNAKTVEKEFKALKDKLSEDGVAYKSLEAKVVERERIVEQLNESLKQLEKEKAVMFDDWTKQLNELKVEVESRRRELETRQTNVESVVAMVDDNTAKTNQVRQSGEAKVKKLAAKYEEIVKQFHEYTVSFDAFLPSL
B2: Arabidopsis MIS12 (Y2H fusion) (protein, UniProt Q2V0Z5 1-238)
chain: MEGSKSEAVFDSMNLNPQIFINEAINSVEDYVDQAFDFYARDASKSLKIKGSDKQKSQALSNGIARVRGLLLSVIDNRLKLWESYSLRFCFAVPDGFVLPKSEESSSVHQDGLYDLELDAELDSLRDKLNVVGKRSVELDSELQALERSSVSRERSLRLVNEALELYDESSMDEIFKEMTKMASELRASVERLKTRRMKASESAKVKRLKNHGKEFSAMTFDGKLEDLEKFQAELRKM
B3: Arabidopsis MAD1 (Y2H fusion) (protein, UniProt Q9LTY1 1-726)
chain: MILRTPQPKRLRSDAGESPFPTGATGSGNQLIIYEDSPLPAPAPLQTSHDHSADQHLCTYQCRQMVKADVLDALSTAEKQVEESKTKLQTLNANFTEADAERKHFRDKFLYSEQELAAAKAREKMLQEQLLMEINNSQERYTKELQSCHELEVKLQNEMNLRKKAESSAATAEEKAKLLEDKLTQLSGSVDREKKRLNNDIAQLGKEAKLSVARIGADLERMQCRAQNAETESNLLRSQLEHLKLIFDECLQEKTEVDKKLSSFTSEAASSSDNSVLVKHLQEELKRYEAEVREARKLKSRHLDAELLNVNLLEEQSRRERAESELSKFHDLQLSMEKLENELSSWKSLLNDIPGVSCPDDIVMRFSVLQNEVVQSTMKIGEASTRIKQLEETLEAIQLGRQNAVSEAALAKEKSEALKTDVKRIEVMLTLVTEEKEQLKAVVNELRKSNSEGSVSGAADGALIQGFESSLAKKENYIKDLEQDLNQLKDVNNRQRTEIELLNEKLVDEARRNKSLERDSDRLRSEISLLESKLGHGDYSAANTRVLRMVNTLGVENEAKQTIEALQAELQKTKERLQAVEELKSQSGDAGKLVDSHITGKIAQLKEQNATLEKREERYKTVFADRISVFRRACCELFGYKIVMDEHQRPNGIPVTRFTLQSIYAQSDDEKLEFEYESGNTSILNNEYASQGDIAKQIEIFIRKFNSIPAFTANLTMESFNRRTLY
B4: Arabidopsis NDC80 (Y2H fusion) (protein, UniProt Q9M1G5 1-568)
chain: MRGGAAGKRRTTVGFGGAPPPPPPSIEQQRHLFNSRDSDASFASSRPSSIGLGGRGASDDRSSMIRFINAFLSTHNFPISIRGNPVPSVKDISETLKFLLSALDYPCDSIKWDEDLVFFLKSQKCPFKITKSSLKAPNTPHNWPTVLAVVHWLAELARFHQHLVSNSTSVPEDNSMNFFAIQSFGHFIRGEDDKVNDLDSQFLGKLEAEKTSVAETISGCEKISGELEAKLESLRKGPSKKESLEKVKADLENDVNKFRTIVVEYTDRNPAMEKVVEEKAKELKAKEEERERISVENKELKKSVELQNFSAADVNRMRRELQAVERDVADAEVARDGWDQKAWELNSQIRNQFHQIQTLAIDCNQALRRLKLDIQFAVNERGETPAAVMGVDYKSVVKPALCSLCDGIKGSSAEKVEELVTLQHHKSEMASKIESKRSLLGSIQLQINDLEEKMKLVKKETQELSTKCDLEAKTLVESVKAEALNLEVVEKEAAEFVKASELRLQEAVKESEEEVQACAAQLFALIDSISKQKEYMDSKISEIKTGVADTASAVSEIYKANFKKNLGI
B5: Arabidopsis MPS1 (Y2H fusion) (enzyme, UniProt Q84VX4 1-777)
chain: MDREDNLPVQPDKPPKSLVRPILNLETTSSSSSSSSSSPELLRHLQAAFKRHRPLSKMQTTSIGPRRSVAPQRQASRNTRLVTAEGQRSQDVVTLSQSLAANTLTQDTTNNLAITSVAGESASITQPTVSEHFNPSDRQMDFGKSAVTSLESNLDVQRKSQSLIGTSQDMEWDATNQAEASHLDACIGSKHQNLPSVDSEVSLKSEYKDSSSLAKIQGQLGEFPNFLNQPRTRCSAVGSSWATTTLIHSSSAPMLNATTHVSRSYVEADSNANPHAVQSQGNLPSCCPSSKVSNILHPNKDATASEMPASTNDPEVRVKETDTSKQQQITTGLEAPVGSSIYGSDGQANARLPEELHTSVSSQPQKSDKHEKVASSKGPSAPRKRNYDPDLFFKVNGKLYQRLGKIGSGGSSEVHKVISSDCTIYALKKIKLKGRDYATAYGFCQEIGYLKKLKGKTNIIQLIDYEVTDKTLLQEVLNGTMSNKDGRVKEDGFIYMVLEYGEIDLAHMLSQKWREIEGSDRTIDENWLRFYWQQILQAVNTIHEERIVHSDLKPANFLLVRGFLKLIDFGIAKAINSDTTNIQRDSQVGTLSYMSPEAFMCNESDENGNTIKCGRPSDIWSLGCILYQMVYGRTPFADYKTFWAKFKVITDPNHEITYNQLSNPWLIDLMKKCLAWDRNQRWRIPELLQHPFLAPPIPHEPQVKTIKLFSLIAESCGSDDDKANSMISQLEQLLSNPAPLPRNDVLDSRDQNQQLLSRVSELCIQLQDRLQGLEGEN

Key:
Experiment in all cases: two-hybrid
[1] = biological target: T1, Arabidopsis NUF2 (Y2H fusion) (Arabidopsis thaliana) (UniProt Q8RXJ0)
T1 sequence: B1 chain

[2] = biological target: T2, Arabidopsis MIS12 (Y2H fusion) (Arabidopsis thaliana) (UniProt Q2V0Z5)
T2 sequence: B2 chain

[3] = biological target: T3, Arabidopsis NDC80 (Y2H fusion) (Arabidopsis thaliana) (UniProt Q9M1G5)
T3 sequence: B4 chain

[4] = biological target: T4, Arabidopsis MAD2 (Y2H fusion) (Arabidopsis thaliana) (UniProt Q9LU93)
T4 sequence: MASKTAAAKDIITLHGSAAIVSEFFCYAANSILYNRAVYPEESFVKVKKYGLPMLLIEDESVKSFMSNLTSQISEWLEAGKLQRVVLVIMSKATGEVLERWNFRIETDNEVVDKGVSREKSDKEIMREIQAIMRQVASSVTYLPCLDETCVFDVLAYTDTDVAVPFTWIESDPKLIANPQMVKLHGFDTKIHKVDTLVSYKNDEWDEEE

[5] = biological target: Arabidopsis MAD1 (Y2H fusion) (Arabidopsis thaliana) (UniProt Q9LTY1)
[6] = biological target: Arabidopsis MPS1 (Y2H fusion) (Arabidopsis thaliana) (UniProt Q84VX4)

| Binder | binding [1] | binding [2] | binding [3] | also measured |
| --- | --- | --- | --- | --- |
| B1 | binds |  |  |  |
| B2 |  | binds |  |  |
| B3 | binds |  | binds | binding [4]: binds; binding [5]: binds |
| B4 |  | binds | binds |  |
| B5 |  |  | no binding | binding [6]: binds |

— publication doi:10.1101/2024.11.04.621965
